Paper PMC8643633
No constants are given. Whether binding was seen depends on the method and setting. In cells and extracts the contact can be indirect. Some binding calls cover weakened binding; strength is not graded here.

Amino acid sequences for entries named in this document (tags omitted).
UniProt Q92922: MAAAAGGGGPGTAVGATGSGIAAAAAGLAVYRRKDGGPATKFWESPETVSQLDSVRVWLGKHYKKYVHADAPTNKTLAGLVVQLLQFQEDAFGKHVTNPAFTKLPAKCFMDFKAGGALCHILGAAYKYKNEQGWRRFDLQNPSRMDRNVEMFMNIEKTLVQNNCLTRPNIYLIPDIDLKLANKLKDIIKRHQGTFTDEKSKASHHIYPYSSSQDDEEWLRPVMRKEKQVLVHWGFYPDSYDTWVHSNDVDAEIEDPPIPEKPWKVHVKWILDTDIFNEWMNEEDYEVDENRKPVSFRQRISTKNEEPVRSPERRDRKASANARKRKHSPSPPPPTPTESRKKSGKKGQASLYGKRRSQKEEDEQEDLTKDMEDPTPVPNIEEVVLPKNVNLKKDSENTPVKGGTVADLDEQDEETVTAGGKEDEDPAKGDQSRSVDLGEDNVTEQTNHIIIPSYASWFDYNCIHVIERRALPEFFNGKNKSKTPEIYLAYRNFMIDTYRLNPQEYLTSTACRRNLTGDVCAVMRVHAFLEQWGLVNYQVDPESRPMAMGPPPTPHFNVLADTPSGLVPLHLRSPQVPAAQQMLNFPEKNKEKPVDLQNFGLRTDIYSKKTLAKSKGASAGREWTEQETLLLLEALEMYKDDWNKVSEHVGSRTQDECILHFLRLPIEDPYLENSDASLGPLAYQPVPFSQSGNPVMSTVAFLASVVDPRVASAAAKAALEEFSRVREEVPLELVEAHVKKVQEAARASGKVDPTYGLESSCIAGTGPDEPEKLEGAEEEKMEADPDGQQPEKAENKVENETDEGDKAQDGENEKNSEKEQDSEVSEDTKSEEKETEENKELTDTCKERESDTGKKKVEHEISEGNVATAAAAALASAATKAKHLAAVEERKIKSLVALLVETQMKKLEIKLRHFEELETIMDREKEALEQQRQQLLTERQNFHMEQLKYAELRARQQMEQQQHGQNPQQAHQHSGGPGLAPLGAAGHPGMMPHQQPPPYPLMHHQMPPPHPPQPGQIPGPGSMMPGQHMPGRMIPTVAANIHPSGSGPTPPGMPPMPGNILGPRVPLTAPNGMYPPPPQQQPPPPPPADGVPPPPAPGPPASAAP
UniProt Q9H165: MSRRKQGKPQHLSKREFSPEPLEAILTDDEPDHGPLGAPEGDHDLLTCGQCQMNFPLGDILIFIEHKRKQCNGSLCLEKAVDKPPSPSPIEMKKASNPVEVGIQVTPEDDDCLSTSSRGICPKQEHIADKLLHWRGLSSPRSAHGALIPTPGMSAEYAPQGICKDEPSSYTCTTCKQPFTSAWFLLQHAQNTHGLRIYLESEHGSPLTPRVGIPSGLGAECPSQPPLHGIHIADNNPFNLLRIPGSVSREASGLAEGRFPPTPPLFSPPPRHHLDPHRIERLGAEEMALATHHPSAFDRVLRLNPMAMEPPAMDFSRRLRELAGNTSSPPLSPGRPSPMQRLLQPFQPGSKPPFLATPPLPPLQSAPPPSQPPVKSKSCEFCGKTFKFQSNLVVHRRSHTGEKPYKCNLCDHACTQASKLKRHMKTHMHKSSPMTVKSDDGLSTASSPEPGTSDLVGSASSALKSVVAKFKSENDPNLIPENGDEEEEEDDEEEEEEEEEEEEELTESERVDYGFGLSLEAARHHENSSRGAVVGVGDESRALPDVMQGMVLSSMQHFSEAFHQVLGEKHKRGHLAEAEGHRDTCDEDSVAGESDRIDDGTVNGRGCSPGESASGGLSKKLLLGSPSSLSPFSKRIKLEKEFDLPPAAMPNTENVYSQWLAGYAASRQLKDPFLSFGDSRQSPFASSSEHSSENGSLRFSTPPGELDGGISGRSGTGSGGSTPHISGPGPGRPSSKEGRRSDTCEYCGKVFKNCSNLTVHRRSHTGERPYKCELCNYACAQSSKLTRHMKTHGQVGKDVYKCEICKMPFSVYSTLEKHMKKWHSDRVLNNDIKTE
UniProt Q86U86: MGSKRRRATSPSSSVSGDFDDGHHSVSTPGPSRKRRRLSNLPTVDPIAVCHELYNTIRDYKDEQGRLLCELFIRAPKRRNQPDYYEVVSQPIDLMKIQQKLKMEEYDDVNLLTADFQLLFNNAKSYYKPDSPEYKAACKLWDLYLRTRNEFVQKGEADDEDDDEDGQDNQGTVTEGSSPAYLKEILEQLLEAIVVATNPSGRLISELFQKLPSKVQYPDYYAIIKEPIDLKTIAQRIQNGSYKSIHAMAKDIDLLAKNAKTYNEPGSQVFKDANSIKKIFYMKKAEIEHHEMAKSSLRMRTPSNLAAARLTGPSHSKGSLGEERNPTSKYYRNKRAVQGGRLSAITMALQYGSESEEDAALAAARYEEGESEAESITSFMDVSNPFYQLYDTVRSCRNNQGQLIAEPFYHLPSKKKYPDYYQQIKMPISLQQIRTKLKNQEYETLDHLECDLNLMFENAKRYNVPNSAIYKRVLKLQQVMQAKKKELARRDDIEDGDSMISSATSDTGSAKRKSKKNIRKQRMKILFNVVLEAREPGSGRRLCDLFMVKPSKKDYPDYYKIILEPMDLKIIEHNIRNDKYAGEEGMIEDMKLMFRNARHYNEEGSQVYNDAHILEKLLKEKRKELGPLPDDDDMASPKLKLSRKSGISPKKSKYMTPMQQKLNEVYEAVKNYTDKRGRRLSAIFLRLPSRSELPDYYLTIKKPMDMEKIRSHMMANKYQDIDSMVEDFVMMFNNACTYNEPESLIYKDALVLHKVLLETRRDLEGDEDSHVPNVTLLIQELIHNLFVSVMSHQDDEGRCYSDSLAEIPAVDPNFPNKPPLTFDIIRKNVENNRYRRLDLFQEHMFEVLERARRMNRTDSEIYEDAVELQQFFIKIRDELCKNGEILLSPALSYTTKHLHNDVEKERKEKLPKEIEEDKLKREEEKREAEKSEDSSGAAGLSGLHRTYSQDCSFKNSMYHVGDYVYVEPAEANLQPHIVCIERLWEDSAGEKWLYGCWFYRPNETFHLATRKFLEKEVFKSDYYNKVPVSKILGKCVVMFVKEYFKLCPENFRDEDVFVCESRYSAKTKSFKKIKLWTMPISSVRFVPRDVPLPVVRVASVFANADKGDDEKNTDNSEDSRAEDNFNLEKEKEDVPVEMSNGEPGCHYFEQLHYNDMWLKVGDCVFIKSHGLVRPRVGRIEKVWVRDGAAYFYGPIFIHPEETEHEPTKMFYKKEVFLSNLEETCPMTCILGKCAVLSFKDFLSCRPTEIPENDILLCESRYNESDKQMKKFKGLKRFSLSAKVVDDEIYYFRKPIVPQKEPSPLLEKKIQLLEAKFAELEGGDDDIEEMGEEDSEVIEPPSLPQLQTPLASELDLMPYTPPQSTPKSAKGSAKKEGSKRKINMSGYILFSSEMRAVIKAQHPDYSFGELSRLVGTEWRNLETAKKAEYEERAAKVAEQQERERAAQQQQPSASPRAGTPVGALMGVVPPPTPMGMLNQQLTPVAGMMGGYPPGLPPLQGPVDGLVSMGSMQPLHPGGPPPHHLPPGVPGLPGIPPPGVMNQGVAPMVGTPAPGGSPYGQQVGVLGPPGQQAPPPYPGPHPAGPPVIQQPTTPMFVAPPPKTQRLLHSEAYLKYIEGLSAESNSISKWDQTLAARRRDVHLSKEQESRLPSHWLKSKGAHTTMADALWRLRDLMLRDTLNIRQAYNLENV
UniProt Q9H8M2: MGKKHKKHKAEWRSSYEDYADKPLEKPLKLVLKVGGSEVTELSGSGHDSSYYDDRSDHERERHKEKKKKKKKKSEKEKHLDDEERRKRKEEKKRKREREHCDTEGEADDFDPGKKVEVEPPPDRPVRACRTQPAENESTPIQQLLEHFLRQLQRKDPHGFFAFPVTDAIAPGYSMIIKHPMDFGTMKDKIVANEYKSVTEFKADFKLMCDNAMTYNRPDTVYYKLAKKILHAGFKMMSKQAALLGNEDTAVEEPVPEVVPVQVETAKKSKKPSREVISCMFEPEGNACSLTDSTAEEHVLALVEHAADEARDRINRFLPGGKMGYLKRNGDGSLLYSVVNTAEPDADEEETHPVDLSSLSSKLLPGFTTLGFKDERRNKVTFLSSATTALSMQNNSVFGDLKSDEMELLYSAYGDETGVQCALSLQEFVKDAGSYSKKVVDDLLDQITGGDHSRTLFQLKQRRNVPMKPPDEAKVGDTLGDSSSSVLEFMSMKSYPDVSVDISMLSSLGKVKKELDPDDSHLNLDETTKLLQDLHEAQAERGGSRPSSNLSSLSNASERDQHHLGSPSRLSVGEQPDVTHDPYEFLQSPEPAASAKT

Columns and labels:
[1] = biological target: BAF155 (human (endogenous in MDA-MB-468)) (UniProt Q92922); assay: co-IP; immunoprecipitation with anti-BCL11A and anti-BAF155 antibodies after treatment with vehicle, JQ1, TP-064 and their combination; western blot of SWI/SNF subunits (Supplementary Figure S6I)
[2] = biological target: B-cell lymphoma 11A (BCL11A) (human (endogenous in MDA-MB-468)) (UniProt Q9H165); assay: as above

binding [1] | binding [2] | Substance
binds | binds | BAF180 (from UniProt Q86U86 1-1689)
binds | binds | BRD9 (from UniProt Q9H8M2 1-597)
